Laboratory results published in publication PMC2633045.
These are yes or no findings as the source states them, for the method shown. For part of these data: In cells and extracts the contact can be indirect. Some results given as binding are weak or reduced against the parent protein; the word gives no strength. Sequences can lack the tags named with a protein. Each block holds one molecule with its values, some of them ahead of it.

Amino acid sequences for entries named in this document (tags omitted).
UniProt P36152: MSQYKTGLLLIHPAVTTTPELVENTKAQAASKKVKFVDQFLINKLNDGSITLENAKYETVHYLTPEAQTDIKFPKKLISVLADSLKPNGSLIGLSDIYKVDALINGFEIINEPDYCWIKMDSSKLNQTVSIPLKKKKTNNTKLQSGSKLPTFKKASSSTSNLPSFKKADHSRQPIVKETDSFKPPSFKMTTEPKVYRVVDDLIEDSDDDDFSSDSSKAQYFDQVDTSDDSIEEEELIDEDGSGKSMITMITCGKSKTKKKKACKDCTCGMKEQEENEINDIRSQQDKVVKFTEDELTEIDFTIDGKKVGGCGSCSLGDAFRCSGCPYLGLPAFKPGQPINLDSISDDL
UniProt Q6FI81: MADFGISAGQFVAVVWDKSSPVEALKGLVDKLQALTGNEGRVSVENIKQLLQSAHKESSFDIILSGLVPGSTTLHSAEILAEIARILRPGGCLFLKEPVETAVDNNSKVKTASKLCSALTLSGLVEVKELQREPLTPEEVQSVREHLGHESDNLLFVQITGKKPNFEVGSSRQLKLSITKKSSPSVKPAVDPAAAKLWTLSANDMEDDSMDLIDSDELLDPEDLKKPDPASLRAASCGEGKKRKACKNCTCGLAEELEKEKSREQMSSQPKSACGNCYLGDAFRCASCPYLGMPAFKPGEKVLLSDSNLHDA

How the values were obtained:
[1] = target: T1, Tah18 fused to the Binding domain (pGilda) (yeast) (UniProt Q12181); test: two-hybrid; LexA-based two-hybrid (Clontech), strain EGY48[p8op-lacZ]; Tah18 on the Binding domain (pGilda), partner on the Activating domain (pB42); growth and blue colour on GR and GRLX media
T1 sequence: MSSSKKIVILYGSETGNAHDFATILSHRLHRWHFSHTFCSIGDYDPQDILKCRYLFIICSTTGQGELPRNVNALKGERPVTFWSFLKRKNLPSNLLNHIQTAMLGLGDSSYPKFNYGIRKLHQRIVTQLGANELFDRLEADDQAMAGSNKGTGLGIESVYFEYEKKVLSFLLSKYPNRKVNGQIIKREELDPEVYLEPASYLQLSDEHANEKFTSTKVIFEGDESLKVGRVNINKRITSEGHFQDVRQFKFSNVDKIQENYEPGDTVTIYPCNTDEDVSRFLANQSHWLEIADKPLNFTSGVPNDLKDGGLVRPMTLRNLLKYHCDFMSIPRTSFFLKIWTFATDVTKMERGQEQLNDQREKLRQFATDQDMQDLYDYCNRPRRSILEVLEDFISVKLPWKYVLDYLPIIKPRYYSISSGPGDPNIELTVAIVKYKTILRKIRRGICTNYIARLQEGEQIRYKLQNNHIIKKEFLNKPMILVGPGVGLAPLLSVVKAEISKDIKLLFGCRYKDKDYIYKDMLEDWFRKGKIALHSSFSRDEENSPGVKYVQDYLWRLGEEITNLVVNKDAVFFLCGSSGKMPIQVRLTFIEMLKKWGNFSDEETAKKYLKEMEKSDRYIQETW

[2] = target: Hemagglutinin-tagged Dre2 (HA-Dre2) (yeast) (UniProt P36152); test: co-IP; yeast lysate in co-IP buffer (50 mM HEPES-KOH pH 7.5, 140 mM NaCl, 1 mM EDTA, 1% Triton X-100, 0.1% Na-Deoxycholate); HA-coated agarose beads, 4°C for 4 hours; Western blot with anti-HA and anti-GFP

binding [1]: binds
Molecule: Dre2 fused to the Activating domain (pB42) (from UniProt P36152 1-348)

binding [1]: binds
Molecule: Human Ciapin1 (Cytokine Induced Apoptosis Inhibitor 1) fused to the Activating domain (pB42) (from UniProt Q6FI81 1-312)

binding [2]: binds
B1: GFP-Tah18 (protein, UniProt Q12181 1-623)
chain: T1 sequence
